Some of the results follow. Further columns of the screen follow, without active or inactive calls. The list favours compounds with an active or inconclusive main result. Words in brackets tell the shape of the fitted curve; partial curves, single points and poor fits give uncertain potencies.
Assay: qHTS Assay to Find Inhibitors of Chronic Active B-Cell Receptor Signaling
Details: ABC-DLBCL IkBa-CBG/CBR reporter, luminescence ratio (green luciferase fused to IkBa over red control in TMD8 lymphoma cells), 4 h
Outline: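 TMD8 ABC-DLBCL cells carrying doxycycline-inducible green luciferase fused to IkappaBalpha plus unfused red luciferase were exposed to compounds (up to 46 uM) for 4 hrs at 37C. Activity came from the overlap-corrected green/red luminescence ratio.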

[1] = measured here: IkBa-CBG green luminescence
[2] = measured here: CBR red luminescence, cell number

O=C(CCl)Nc1cccc(S(=O)(=O)NC2=NCCCCC2)c1
AC50 [1]: 16.4 µM [falling, partial curve]

Cn1ccc(C(=O)Oc2ccc(C(=O)Nc3ccc(F)cc3F)cc2)n1
AC50 [2]: 0.891 µM [falling, full curve, poor fit]

CCn1cc2nc(SCC(=O)Nc3ccc(F)cc3F)n(Cc3ccccc3)c(=O)c2n1
AC50 [2]: 8.91 µM [falling, partial curve, poor fit]

CC(C)CCNC(=O)C1(O)c2ccccc2NC(=O)N1c1ccc(Cl)cc1 (configuration not stated)
AC50 [2]: 0.447 µM [rising, full curve]

CC(C)(C)c1[nH]nc2c1C(c1ccoc1)C(C#N)=C(N)O2 (configuration not stated)
AC50 [2]: 9.2 µM [falling, partial curve, poor fit]
AC50 [1]: 23.1 µM [rising, partial curve, poor fit]

Cc1cccc(C(=O)NC(=S)N2CCc3ccccc3C2)c1
AC50 [2]: 25.9 µM [rising, partial curve]

COc1ccc(CCNC(=O)c2cnc(Cl)c(Cl)c2)cc1
AC50 [2]: 25.1 µM [falling, single point]

Cc1cccc(NC(=O)c2ccc(COc3cccc4ccccc34)o2)n1
AC50 [2]: 18.4 µM [falling, single point]

Cc1cc(NC(=O)/C=C/c2ccco2)ccc1NC(=O)c1ccccc1
AC50 [2]: 8.91 µM [falling, partial curve, poor fit]

CCOC(=O)c1cc(=O)n2c(nc3ccccc32)[nH]1
AC50 [2]: 23.1 µM [falling, partial curve]

CCOC(CCn1c(SCC(=O)Nc2cc(C)on2)nc2ccccc2c1=O)OCC
AC50 [2]: 35.5 µM [rising, single point]

CCN1C(=O)[C@H]2[C@@H](c3ccc(C)cc3)N3C(=O)N(c4cccc(Br)c4)C(=O)[C@@]3(CC(C)C)[C@H]2C1=O
AC50 [2]: 16.4 µM [falling, partial curve, poor fit]

COc1ccc2c3c([nH]c2c1)C1(NCC3)C(=O)Nc2ccccc21 (configuration not stated)
AC50 [2]: 35.5 µM [falling, single point]

O=C(C1=C(O)C(=O)N(CCN2CCOCC2)C1c1ccccn1)c1cccs1 (configuration not stated)
AC50 [2]: 16.4 µM [falling, single point]

CCOC(=O)c1ccn(-c2nc(-c3ccco3)cc(C(F)(F)F)n2)n1
AC50 [2]: 20.6 µM [falling, partial curve, poor fit]

NS(=O)(=O)c1ccc(NC(=O)COC(=O)c2c3c(nc4ccccc24)/C(=C\c2ccc4c(c2)OCO4)CCC3)cc1
AC50 [2]: 7.31 µM [rising, partial curve, poor fit]

Cc1ccc(NC(=O)c2ccc(OC(=O)COc3ccc(Cl)cc3C)cc2)cc1
AC50 [2]: 4.11 µM [falling, full curve]

CCc1ccc(C2=NN(CCC(=O)NC(C)CCc3ccccc3)C(=O)CC2)cc1 (configuration not stated)
AC50 [2]: 12.6 µM [falling, partial curve, poor fit]

Cc1oc2c(O)c(O)ccc2c(=O)c1-c1ccc(Cl)cc1
AC50 [2]: 14.1 µM [rising, single point]

CCCCCOC(=O)NCC(O)c1ccccc1 (configuration not stated)
AC50 [2]: 8.91 µM [falling, partial curve]

CCOc1ccc(-c2cn3ccccc3n2)cc1[N+](=O)[O-]
AC50 [2]: 29.1 µM [rising, single point]

O=C(c1ccccc1)c1c[nH]c(C(=O)NNc2cccc(Cl)n2)c1
AC50 [2]: 14.1 µM [falling, single point]

CCN(CC(=O)Nc1c(F)cccc1F)C(=O)c1ccc2c(c1)S(=O)(=O)N=C1CCCCCN12
AC50 [2]: 16.4 µM [falling, partial curve, poor fit]

Cc1cc(C(=O)OC(C)C(=O)Nc2nc(-c3ccccc3)cs2)c(C)o1 (configuration not stated)
AC50 [2]: 7.31 µM [falling, partial curve]

COc1ccc(N(C)S(=O)(=O)c2ccc(Cl)c(C(=O)NCCc3ccc(Cl)cc3)c2)cc1
AC50 [2]: 14.1 µM [falling, single point]

O=[N+]([O-])/C=C\c1ccc(N2CCCC2)c(F)c1
AC50 [2]: 31.6 µM [rising, single point]

N#CCCN1C(=O)C2(OCCO2)c2ccccc21
AC50 [2]: 0.1 µM [rising, full curve, poor fit]

O=C(Nc1ccc2c(c1)nc1n2CCSC1)c1ccccc1
AC50 [2]: 6.51 µM [falling, partial curve]

O=C(NC(=S)Nc1cc([N+](=O)[O-])ccc1O)c1ccc2c(c1)OCO2
AC50 [2]: 1.58 µM [falling, full curve]

Cc1cc(C(=O)Nc2cnn(Cc3ccc(Cl)cc3Cl)c2)no1
AC50 [2]: 11.2 µM [falling, partial curve, poor fit]

CCN(CC)S(=O)(=O)c1ccc(N2CCc3ccccc3C2)nc1
AC50 [2]: 8.91 µM [falling, partial curve, poor fit]

O=C(N/N=C/c1ccc([N+](=O)[O-])o1)c1ccc(O)cc1
AC50 [2]: 2.59 µM [falling, full curve]

O=C(COC(=O)CN1C(=O)C2CCCCC2C1=O)Nc1cc(S(=O)(=O)N2CCOCC2)ccc1Cl (configuration not stated)
AC50 [2]: 18.4 µM [rising, partial curve, poor fit]

Cn1nc(-c2ccc(Cl)cc2)nc2c(=O)n(C)c(=O)nc1-2
AC50 [2]: 0.708 µM [falling, full curve]
AC50 [1]: 35.5 µM [rising, partial curve, poor fit]

Cc1cc(O)c2c(CN3CCN(Cc4ccccc4)CC3)cc(=O)oc2c1
AC50 [2]: 11.2 µM [falling, single point]

COc1ccccc1CN1CCN(C(=O)c2ccco2)CC1
AC50 [2]: 35.5 µM [rising, single point]

C/C(=N\Nc1ccc(C(=O)O)cc1)c1ccc(S(=O)(=O)NCc2ccco2)cc1
AC50 [2]: 3.16 µM [falling, full curve]

Cc1cc(C)cc(OCc2ccc(C(=O)NN)o2)c1
AC50 [2]: 1.78 µM [falling, full curve]

Cn1nc(C(=O)NCc2ccc(F)cc2)c2ccccc2c1=O
AC50 [2]: 7.94 µM [rising, partial curve, poor fit]

O=C(c1ccncc1)N(c1ccc2oc3c(c2c1)CCCC3)S(=O)(=O)c1ccc(F)cc1
AC50 [1]: 29.1 µM [rising, partial curve, poor fit]

Source: PubChem BioAssay AID493014 (National Center for Advancing Translational Sciences (NCATS), 2011)
